PubChem BioAssay AID1159578, Peter MacCallum Cancer Centre, 2015
The deposit covers about 18,000 reagents; this is an unselected part. About 1,030 of them (5.7%) count as active. 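Inactive calls also include pools with fewer than 3300 nuclei, whose migration was not assessed.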 The raw values are shown without normalisation. A number with no mark means an inactive call. Not all columns of the deposit are shown.

Assay: 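siRNA pools altering how lymphatic endothelial cells close a scratch wound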 (primary screen)
Cells: human lymphatic endothelial cells
Reagents: siRNA pool against human genes, 40 nM
Duration: 48 h after transfection
Measurement: 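High-content imaging of dye-stained cells in a scratch assay measures filled wound area and nuclei per well; duplicate means given as ratio to mock and robust z-score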
Scale: migration robust z-score: higher = faster migration into the scratch; nuclei per well: higher = more cells in the well
Call rule: 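Migration changed when robust z exceeds 2 or falls below -2 and mean nuclei number is at least 3300; otherwise not called changed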
Calls: active = migration changed; inactive = no migration change, or too few cells

Against CATSPER2, the values are migration robust z-score 0.91; nuclei per well, duplicate mean 6058.
Knock-down of E4F1 gave: migration robust z-score -0.39; nuclei per well, duplicate mean 4626.
Against NEK7, the entry reads migration robust z-score 1.48; nuclei per well, duplicate mean 6301.
Against HVCN1, the values are migration robust z-score 0.46; nuclei per well, duplicate mean 5552.
Depletion of RANGRF resulted in: migration robust z-score -0.3; nuclei per well, duplicate mean 5056.
RBMS3 showed migration robust z-score 0.48; nuclei per well, duplicate mean 6790.
Against HSF4 the deposit lists migration robust z-score -0.62; nuclei per well, duplicate mean 4493.
With knock-down of TBC1D13 the results were migration robust z-score -1.25; nuclei per well, duplicate mean 5551.
Silencing of UGGT2 resulted in: migration robust z-score 1.02; nuclei per well, duplicate mean 6262.
With knock-down of PLD6, the screen gave migration robust z-score 1.47; nuclei per well, duplicate mean 5954.
With knock-down of VPS37A, the record shows migration robust z-score -0.26; nuclei per well, duplicate mean 6445.
Depletion of ZNF320 resulted in: migration robust z-score -0.66; nuclei per well, duplicate mean 4592.
UGT3A2 gave migration robust z-score 0.73; nuclei per well, duplicate mean 5233.
With knock-down of WDR11, the screen gave migration robust z-score -0.24; nuclei per well, duplicate mean 4409.
With knock-down of C1orf141 the results were migration robust z-score 2.12 (active); nuclei per well, duplicate mean 7215.
Silencing of IGFBP2 gave: migration robust z-score -1.02; nuclei per well, duplicate mean 5177.
Knock-down of ZNF787 resulted in: migration robust z-score -1.02; nuclei per well, duplicate mean 5492.
Against PIAS2, the values are migration robust z-score 0.44; nuclei per well, duplicate mean 5809.
Depletion of PMEL came out at: migration robust z-score -2.33 (active); nuclei per well, duplicate mean 5706.
After knock-down of NAT10, the screen gave migration robust z-score 0.1; nuclei per well, duplicate mean 5817.
ANTXR2 gave migration robust z-score 0.82; nuclei per well, duplicate mean 4706.
Against BTBD6 the deposit lists migration robust z-score 0.22; nuclei per well, duplicate mean 5784.
Against MARVELD3 the deposit lists migration robust z-score -0.69; nuclei per well, duplicate mean 6538.
Silencing of CHRNA10 resulted in: migration robust z-score 0.04; nuclei per well, duplicate mean 6309.
Silencing of CST11 gave: migration robust z-score -0.08; nuclei per well, duplicate mean 6328.
Knock-down of C11orf87 resulted in: migration robust z-score -1.64; nuclei per well, duplicate mean 5038.
Silencing of GABARAP gave: migration robust z-score -0.39; nuclei per well, duplicate mean 6297.
